Reference: PubChem BioAssay AID485349 (National Center for Advancing Translational Sciences (NCATS), 2010)
The campaign covered roughly 320,000 compounds. About 620 (0.19%) were called active. This list was built around the results that the source calls inconclusive (neither active nor inactive); the mix of calls is not that of the screen. The call rests on the fitted dose curve; in most records, active means well fitted activation curve with a large enough effect; inconclusive means small, poorly fitted or top-dose-only effect; inactive means no such curve, though single readings can be large or run the other way. Potencies of inconclusive entries are doubtful fits and often do not repeat.

assay: qHTS Assay for Identifying a Potential Treatment of Ataxia-Telangiectasia; conditions: […] A-T fibroblasts, KAP-1 phosphorylation AlphaLISA, neocarzinostatin DNA damage 30 min before lysis; series mostly up to 57.5 µM; further: nearly all actives have a fitted effect of over 45% in size
Outline: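 ATM-like activity read as KAP-1 phosphorylation via AlphaLISA donor/acceptor antibody pairs after lysis and 6 hr at 25C. Cells were ATM-null patient fibroblasts ([…], hTERT), dosed 60 min, then exposed to the DSB inducer NCS for 30 min.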
Potency means the concentration at half of the fitted maximal effect.

| Compound | Potency |
| --- | --- |
| Nc1ccc2c(C(F)(F)F)cc(=O)oc2c1 | inconclusive: 17.8 µM [activator, partial curve] |
| O=C(COC(=O)c1ccc2ccccc2c1O)NCC(F)(F)F | inconclusive: 4.47 µM [activator, full curve, poor fit] |
| COC(=O)C1C(c2ccccc2)C(C(=O)N2CCOCC2)C1c1ccccc1 (stereo not given) | inconclusive: 14.1 µM [activator, partial curve] |
| CCCCC(O)(c1ccc(CC)cc1)C(CN1CCOCC1)c1ccccc1 (stereo not given) | inconclusive: 39.8 µM [activator, single point] |
| COc1ccc(-c2nc3cnccn3c2NC2CCCCC2)cc1-c1cccc(Cl)c1 | inconclusive: 28.2 µM [activator, partial curve] |
| NS(=O)(=O)c1cccc(NC(=O)COC(=O)Cc2ccc(S(=O)(=O)N3CCCCC3)s2)c1 | inconclusive: 0.794 µM [activator, full curve, poor fit] |
| Cc1ccc(S(=O)(=O)/N=C2/C=C(Sc3ncn[nH]3)C(=O)c3ccccc32)cc1 | inconclusive: 3.16 µM [activator, partial curve] |
| CCCn1nc(NC(=O)C(C)C)c2cc3cc(OC)ccc3nc21 | inconclusive: 28.2 µM [activator, single point] |
| CN(Cc1ccccc1)C(=O)c1cc2cc(F)ccc2[nH]1 | inconclusive: 7.94 µM [activator, partial curve, poor fit] |
| Cc1c(NC(=O)c2cc(Br)ccc2Cl)cccc1-n1cnnn1 | inconclusive: 31.6 µM [activator, single point] |
| c1ccc(-c2csc3ncn4cnnc4c23)cc1 | inconclusive: 3.55 µM [activator, partial curve] |
| CCOC(=O)NC1Cc2ccccc2C1Sc1ccccn1 (stereo not given) | inconclusive: 0.708 µM [activator, full curve, poor fit] |
| Oc1ccc(N=Nc2ccc3c(c2)OCO3)c2ccccc12 | active: 10 µM |
| O=C(NCCCN1CCOCC1)c1ccc(S(=O)(=O)Nc2cccc(C(F)(F)F)c2)cc1 | inactive |
| COc1cc(C2CC(c3c(C)cc(C)[nH]c3=O)=NN2c2ccccc2F)cc(OC)c1OC (stereo not given) | inconclusive: 17.8 µM [activator, partial curve] |
| COCCNc1cc(C)nc2c3c(C)cc(C)nc3nn12 | inconclusive: 35.5 µM [activator, partial curve] |
| Cc1cc(C)c(NC(=O)CSc2nnc(-c3ccncc3)n2Cc2ccco2)c(Cl)c1 | inconclusive: 1.58 µM [activator, partial curve] |
| COc1ccc(-c2c(C)oc3ccc(C)cc23)cc1 | inconclusive: 39.8 µM [activator, single point] |
| O=C1C(Cc2ccccc2)Nc2ncnc(N3CCN(c4ccccc4)CC3)c2N1Cc1ccccc1 (stereo not given) | inactive |
| C(=C\c1nccc2c1[nH]c1ccccc12)/c1ccccc1 | active: 22.4 µM |
| COCCn1c(SCC(=O)N2CCCCCC2)nc2c([nH]c3ccccc32)c1=O | inactive |
| O=C(NCCc1ccc(F)cc1)N[C@@H](Cc1ccccc1)C(=O)O | inactive |
| C[C@@H]1C[C@@H]2OC(=O)[C@]3(C)[C@H]2[C@@H](OC3(C)O)[C@]2(C)C(=O)C=C[C@H]12 (stereo not given in full) | active: 39.8 µM |
| CC(=O)N1CCN(c2cc(N3CCc4ccccc4C3)c(F)cc2[N+](=O)[O-])CC1 | inactive |

Looked up by compound from above:

| Compound | Potency |
| --- | --- |
| CCCCC(O)(c1ccc(CC)cc1)C(CN1CCOCC1)c1ccccc1 (stereo not given) | inconclusive: 39.8 µM [activator, single point] |
| COC(=O)C1C(c2ccccc2)C(C(=O)N2CCOCC2)C1c1ccccc1 (stereo not given) | inconclusive: 14.1 µM [activator, partial curve] |
| COc1cc(C2CC(c3c(C)cc(C)[nH]c3=O)=NN2c2ccccc2F)cc(OC)c1OC (stereo not given) | inconclusive: 17.8 µM [activator, partial curve] |
| NS(=O)(=O)c1cccc(NC(=O)COC(=O)Cc2ccc(S(=O)(=O)N3CCCCC3)s2)c1 | inconclusive: 0.794 µM [activator, full curve, poor fit] |

The results go on.

| Compound | Potency |
| --- | --- |
| CCOC(=O)Cn1nc(C)c(NC(=O)COc2ccc(C)c(C)c2)c1C | inconclusive: 15.8 µM [activator, single point] |
| CCn1c(SCC(=O)Nc2ccc(NC(=O)c3ccco3)c(OC)c2)nc2ccccc2c1=O | inconclusive: 10 µM [activator, partial curve] |
| COc1ccc(CN2CCN(Cc3csc(C(C)=O)c3)CC2CCO)c(C)c1C (stereo not given) | inactive |
| CCN(CC)c1ccc(S(=O)(=O)N2CCCCC2)cc1NC(=O)CN1C(=O)NC2(CCCC2)C1=O | inconclusive: 39.8 µM [activator, single point] |
| Cc1ccc2cc(CN(C(=O)c3cccs3)c3ccccc3)c(=O)[nH]c2c1 | inconclusive: 0.708 µM [activator, full curve, poor fit] |
| COc1cc(CN(C)Cc2cc(=O)oc3cc(C)c(Cl)cc23)ccc1OC(F)F | inactive |
| CCN(CC)c1ccc2cc(C(N)=O)c(=O)oc2c1 | inconclusive: 39.8 µM [activator, single point] |
| CCC1(C)Cc2nc3[nH]c(=S)n(-c4ccc(C)cc4)c(=O)c3cc2CO1 (stereo not given) | inactive |
| O=C(NCC1CCCO1)C(=O)N/N=C/c1ccc(O)c(Cl)c1 (stereo not given) | inactive |
| O=C(Nc1ccon1)Nc1cccc(Cl)c1Cl | inactive |
| COc1ccc(CC(=O)c2ccc(O)cc2O)cc1 | inconclusive: 44.7 µM [activator, partial curve, poor fit] |
| O=C(CCSc1ccc(Cl)cc1)NCc1ccncc1 | inconclusive: 35.5 µM [activator, partial curve] |
| CCSc1nnc(-c2cc3c(s2)-c2ccccc2CC3)o1 | inconclusive: 28.2 µM [activator, partial curve] |
| CCOC(=O)c1c(NC(=S)N2CCOCC2)sc2c1CCN(C(=O)OCC)C2 | inconclusive: 35.5 µM [activator, single point] |
| COCCCn1c(=O)c2sccc2n(Cc2cccc(C)c2)c1=O | active: 1.58 µM |
| O=C(C1CCN(S(=O)(=O)c2c(Cl)cccc2Cl)CC1)N1CCCC1 | inconclusive: 39.8 µM [activator, single point] |
| Cc1ccccc1C(=O)Nc1ccccc1N1CCCCC1 | inconclusive: 39.8 µM [activator, single point] |
| Cc1ccc(S(=O)(=O)CC(c2ccccc2)N2CCCCC2)cc1 (stereo not given) | inactive |
| COC(=O)C1CSC(c2ccc(Cl)cc2)N1C(=O)c1ccccc1 (stereo not given) | inactive |
| Clc1ccc(CN2CCc3c([nH]c4ccccc34)C2)cc1Cl | inconclusive: 3.55 µM [activator, partial curve] |
| O=C1OCCN1C(=O)[C@H]1[C@H](c2ccc(F)cc2)C(c2ccccc2)=NN1c1ccc(Br)cc1 | inactive |
| CCn1c(CNC(=O)c2cccs2)nnc1SCC(=O)Nc1cc(Cl)ccc1C | inconclusive: 39.8 µM [activator, single point] |
| O=C(COC(=O)/C=C/c1cccc(F)c1)NC1CCCCCC1 | inconclusive: 3.98 µM [activator, partial curve] |
| Fc1ccc(CN2CC[C@H]3C=CCc4cccc(c43)C2)cc1 | inconclusive: 39.8 µM [activator, single point] |

| Compound | Potency |
| --- | --- |
| CC[C@@H]1C(c2cccc(Cl)c2)=NN(c2ccc(Br)cc2)[C@H]1C(=O)N1CCOC1=O | inconclusive: 25.1 µM [activator, partial curve] |
| CCCCNc1c(-c2ccc(SC(C)CC)c(OC)c2)nc2ccc(C)cn12 (stereo not given) | inconclusive: 39.8 µM [activator, single point] |
| CC(C)(C)n1nc2c(c1NC(=O)COc1ccc(F)cc1)CS(=O)(=O)C2 | inactive |
| COc1ccc(CN2CCN(c3ncnc4scc(-c5ccc(F)cc5)c34)CC2)cc1 | active: 14.1 µM |
| O=C(NCCc1ccccc1)c1ccc(Br)o1 | inactive |
| O=C(CCC(=O)c1ccc(F)cc1)Nc1cccc(Br)c1 | inconclusive: 0.708 µM [activator, full curve, poor fit] |
| COC(=O)CCC(=O)Nc1ccc(Cl)c(Cl)c1 | inactive |
| Cc1ccc(-c2ccc(/C=N/NC(=O)CN3CCCC3)o2)cc1Cl | inactive |
| O=C(NCc1ccc(C(F)(F)F)cc1)C1CC(c2cccc(F)c2)=NO1 (stereo not given) | inconclusive: 39.8 µM [activator, partial curve] |
| Cc1cccc(Nc2nc(-c3ccc(F)c(C)c3)cs2)n1 | inconclusive: 10 µM [activator, partial curve] |
| C[C@@H]1CC[C@@]23COC(=O)C2=CCC[C@@H]3[C@@]1(C)CC/C(=C/CO)CO | inconclusive: 20 µM [activator, partial curve] |
| C[C@H](NC(=O)c1[nH]cnc1C(=O)Nc1ccc(Cl)cc1)C(=O)OC(C)(C)C | inconclusive: 39.8 µM [activator, partial curve, poor fit] |
| Cc1ccc(C(=O)Nc2cccc(C(F)(F)F)c2)cc1NC(=O)c1cnnc2ccccc12 | inconclusive: 28.2 µM [activator, partial curve] |
| Cc1ccc(CNC(=O)c2cccc(OCc3c(C)noc3C)c2)cc1 | inconclusive: 0.316 µM [activator, full curve, poor fit] |
| N#C/C(=C/c1ccc(F)cc1)C(N)=S | active: 3.55 µM |
| COc1ccccc1OCCNC(=O)c1cccc(S(=O)(=O)N2CCN(Cc3ccccc3)CC2)c1 | inactive |
| CCC(C)c1ccccc1OCCCN(C)Cc1ccccc1 (stereo not given) | inconclusive: 22.4 µM [activator, partial curve] |
| COc1ccc(OC)c(S(=O)(=O)N/N=C\c2c[nH]c3ccccc23)c1 | inconclusive: 0.708 µM [activator, full curve, poor fit] |
| O=C(Nc1ccc(S(=O)(=O)Nc2nccs2)cc1)c1cccc(N2C(=O)c3ccccc3C2=O)c1 | inactive |
| O=C(/C=C/c1cccc(Br)c1)c1ccc2c(c1)OCO2 | inconclusive: 28.2 µM [activator, partial curve] |
| COc1ccc(S(=O)(=O)N(C)C[C@H]2Oc3ccc(NS(=O)(=O)c4ccc(F)cc4)cc3C(=O)N([C@H](C)CO)C[C@@H]2C)cc1 | inactive |
| CC(C)=CCC/C(C)=C/COc1ccc2ccc(=O)oc2c1 | inconclusive: 22.4 µM [activator, partial curve] |
